Patent US20080118529A1
Results are given in words; binding and its absence hold for the method and conditions named. Some binding calls cover weakened binding; strength is not graded here.

By UniProt entry, the sequences of proteins in these tests, tags left out. Residues count along the entry.
UniProt P02749, residues 20-345: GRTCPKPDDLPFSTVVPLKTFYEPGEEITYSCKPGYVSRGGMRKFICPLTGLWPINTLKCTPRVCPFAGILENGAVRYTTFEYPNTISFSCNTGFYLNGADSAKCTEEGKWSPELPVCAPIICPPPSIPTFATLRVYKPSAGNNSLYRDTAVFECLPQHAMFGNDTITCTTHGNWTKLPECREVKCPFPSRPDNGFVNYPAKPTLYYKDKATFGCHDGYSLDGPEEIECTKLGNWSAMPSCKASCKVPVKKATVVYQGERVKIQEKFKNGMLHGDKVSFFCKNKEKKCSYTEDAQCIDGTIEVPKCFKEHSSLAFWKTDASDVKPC

What was measured:
lysozyme (ICN, 100831) = lysozyme (ICN, 100831) (UniProt P00698); test: ELISA; protein incubated with DXS500k or buffer immobilized, overlaid with tPA in 10 mM εACA
[1] = target: β2GPI immobilized directly on the wells of an ELISA plate (FIG. 3G) (UniProt P02749); test: ELISA on β2GPI immobilized directly on the plate
[2] = target: β2GPI bound to cardiolipin immobilized on the wells of an ELISA plate (UniProt P02749); test: ELISA on β2GPI bound to immobilized cardiolipin

Measured: binding

Tissue-type plasminogen activator (tPA, Actilyse, Boehringer-Ingelheim) (from UniProt P00750 36-562) (enzyme)
binds: all assays above
